Assay results as given in patent publication US20170128554A1.
These are yes or no findings as the source states them, for the method shown. Binding seen in cells or lysates may run through a third protein. Some entries that bind do so weakly or less than the wild type.

Tests used:
[1] = molecular target: T1, Fetuin (denatured; sialylated complex N-linked glycans) (UniProt P12763); assay: fetuin pull-down from cell lysates, low salt buffer, SDS-PAGE
T1 sequence (sialylated complex N-linked glycans, looked up): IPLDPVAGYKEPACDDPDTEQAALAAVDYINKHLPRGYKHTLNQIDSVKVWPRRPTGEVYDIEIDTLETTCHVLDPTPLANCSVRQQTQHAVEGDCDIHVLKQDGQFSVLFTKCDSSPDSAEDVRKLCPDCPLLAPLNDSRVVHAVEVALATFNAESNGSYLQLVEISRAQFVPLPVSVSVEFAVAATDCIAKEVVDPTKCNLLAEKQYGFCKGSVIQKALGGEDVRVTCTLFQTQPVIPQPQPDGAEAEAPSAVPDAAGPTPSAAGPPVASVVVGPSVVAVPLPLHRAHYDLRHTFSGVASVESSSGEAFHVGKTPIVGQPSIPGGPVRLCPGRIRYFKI

[2] = molecular target: T1, Fetuin (denatured; sialylated complex N-linked glycans); assay: pull-down of Fbs from cell lysate by denatured fetuin on Affigel-15 beads in low salt, SDS-PAGE, ImageJ fold change against wt
[3] = molecular target: T1, Fetuin (denatured; sialylated complex N-linked glycans); assay: pull-down of Fbs from cell lysate by Affigel-fetuin beads in low salt (50 mM ammonium acetate pH 7.5), SDS-PAGE, fold change against wt; lysate panel as loading control
[4] = molecular target: T1, Fetuin (denatured; sialylated complex N-linked glycans); assay: fetuin pull-down, low salt buffer, SDS-PAGE

B1: wtFbs as used in the fetuin pull-down from cell lysates (Example 15) (protein, not shown: large carriers)
chain: FYFLSKRRRNLLRNPCGEEDLEGWCDVEHGGDGWRVEELPGDSGVEFTHDESVKKYFASSFEWCRKAQVIDLQAEGYWEELLDTTQPAIVVKDWYSGRSDAGCLYELTVKLLSEHENVLAEFSSGQVAVPQDSDGGGWMEISHTFTDYGPGVRFVRFEHGGQDSVYWKGWFGARVTNSSVWVEP
binding [1]: binds | binding [2]: binds | binding [3]: binds

B2: Fbs mutant PPG (protein, not shown: large carriers)
chain: FYFLSKRRRNLLRNPCGEEDLEGWCDVEHGGDGWRVEELPGPPGVEFTHDESVKKYFASSFEWCRKAQVIDLQAEGYWEELLDTTQPAIVVKDWYSGRSDAGCLYELTVKLLSEHENVLAEFSSGQVAVPQDSDGGGWMEISHTFTDYGPGVRFVRFEHGGQDSVYWKGWFGARVTNSSVWVEP
binding [4]: binds | binding [2]: binds

B3: Fbs mutant PPS (protein, not shown: large carriers)
chain: FYFLSKRRRNLLRNPCGEEDLEGWCDVEHGGDGWRVEELPGPPSVEFTHDESVKKYFASSFEWCRKAQVIDLQAEGYWEELLDTTQPAIVVKDWYSGRSDAGCLYELTVKLLSEHENVLAEFSSGQVAVPQDSDGGGWMEISHTFTDYGPGVRFVRFEHGGQDSVYWKGWFGARVTNSSVWVEP
binding [4]: binds | binding [2]: binds

B4: Fbs mutant PPR (protein, not shown: large carriers)
chain: FYFLSKRRRNLLRNPCGEEDLEGWCDVEHGGDGWRVEELPGPPRVEFTHDESVKKYFASSFEWCRKAQVIDLQAEGYWEELLDTTQPAIVVKDWYSGRSDAGCLYELTVKLLSEHENVLAEFSSGQVAVPQDSDGGGWMEISHTFTDYGPGVRFVRFEHGGQDSVYWKGWFGARVTNSSVWVEP
binding [4]: binds | binding [2]: binds | binding [3]: binds

B5: Fbs mutant YR (protein, not shown: large carriers)
chain: FYFLSKRRRNLLRNPCGEEDLEGWCDVEHGGDGWRVEELPGDSGVEFTHDESVKKYFASSYRWCRKAQVIDLQAEGYWEELLDTTQPAIVVKDWYSGRSDAGCLYELTVKLLSEHENVLAEFSSGQVAVPQDSDGGGWMEISHTFTDYGPGVRFVRFEHGGQDSVYWKGWFGARVTNSSVWVEP
binding [4]: binds | binding [2]: binds | binding [3]: binds

B6: Fbs mutant S155G+YR (GYR) as used in the fetuin pull-down from cell lysates (Example 15) (protein, not shown: large carriers)
chain: FYFLSKRRRNLLRNPCGEEDLEGWCDVEHGGDGWRVEELPGDGGVEFTHDESVKKYFASSYRWCRKAQVIDLQAEGYWEELLDTTQPAIVVKDWYSGRSDAGCLYELTVKLLSEHENVLAEFSSGQVAVPQDSDGGGWMEISHTFTDYGPGVRFVRFEHGGQDSVYWKGWFGARVTNSSVWVEP
binding [4]: binds | binding [3]: binds
